# Library compounds against nucleic acid targets

Calls as published in the ROBIN set (doi:10.1002/anie.202211358).

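Compounds were printed on reactive glass slides in duplicate spots, a dye-labelled oligonucleotide was laid over them, and the fluorescence left after washing was read. The data file lists only calls. An earlier report of the laboratory on the PreQ1, TPP and SAM-II riboswitches (doi:10.1038/s41467-019-09493-3) used 1 µM RNA for 2 h and required a mean Z-score above 3 (spot signal-to-noise against the whole library), a score well above that on a control array, and duplicate spots agreeing (coefficient of variation under 100); it then also set aside compounds that hit other targets, which this list keeps. The cut-offs behind this list may differ. These are primary screening calls, not affinities; a compound without a hit may have attached poorly or may still bind in solution.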
“hit” means called a hit, “no hit” means screened and not called a hit.
This is an unselected part of the compounds tested.
A target missing from an entry has no call listed here.
A dash means that no call is listed here.

Oligonucleotides screened, 5′ to 3′:
T1: TPP riboswitch RNA three-way junction, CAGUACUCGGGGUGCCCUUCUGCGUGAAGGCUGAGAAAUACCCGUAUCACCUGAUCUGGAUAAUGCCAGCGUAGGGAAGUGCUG. Hit rate about 0.7% of about 24,000 compounds.
T2: SAM-II riboswitch RNA pseudoknot, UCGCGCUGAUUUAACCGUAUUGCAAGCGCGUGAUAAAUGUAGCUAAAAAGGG. Hit rate about 1% of about 21,000 compounds.
T3: PreQ1 riboswitch RNA pseudoknot, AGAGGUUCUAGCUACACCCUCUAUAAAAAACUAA. From B. subtilis. Hit rate about 0.7% of about 24,000 compounds.

| # | structure | T1 | T2 | T3 |
|---|---|---|---|---|
| 1 | `O=C1c2ccccc2C(=O)c2c(NCCN3CCOCC3)cccc21` | no hit | no hit | no hit |
| 2 | `CCCc1cc(NCCCN2CCOCC2)n2ncc(-c3ccccc3)c2n1` | no hit | - | no hit |
| 3 | `COC(=O)N1C2CCCCC2=NN(c2ccccc2)N1C(=O)OC` (stereo not given) | no hit | no hit | no hit |
| 4 | `O=c1[nH]cc(CO)c(=O)[nH]1` | no hit | no hit | no hit |
| 5 | `O=C(c1cn(CC=Cc2ccccc2)nn1)N1[C@H]2CCNC[C@@H]1CC2` | no hit | no hit | no hit |
| 6 | `COC(=O)[C@H]1C[C@@H](O)CCN1C(=O)c1cc(C)c(C)cc1C` | no hit | no hit | no hit |
| 7 | `N[C@@H](Cc1c[nH]cn1)C(=O)N1CCc2ncnc(N3CCCC3)c2CC1` | no hit | no hit | no hit |
| 8 | `Cc1ccc(C)c(C(=O)CCC(=O)O)c1` | no hit | no hit | no hit |
| 9 | `Cn1c(=O)c2c(nc(NCc3ccc4c(c3)OCO4)n2C)n(C)c1=O` | no hit | no hit | no hit |
| 10 | `O=C(Cn1cnnn1)N1C[C@H]2COc3ccccc3C[C@@]2(CO)C1` | no hit | no hit | no hit |
| 11 | `CC(=O)n1cc(C2CC(=O)OC3=C2CC(=O)C(C)(C)C3)c2ccccc21` (stereo not given) | no hit | no hit | no hit |
| 12 | `O=C1NCC2=C1C(c1ccc(Br)cc1)Nc1ccccc1N2` (stereo not given) | no hit | no hit | no hit |
| 13 | `COc1ccc(-c2cnc3cc(-c4ccc(C(C)(C)C)cc4)nn3c2N)cc1OC` | no hit | no hit | no hit |
| 14 | `Cn1c(CN2CCCCCC2)nnc1C1CCN(C2CCNCC2)CC1` | no hit | no hit | no hit |
| 15 | `Cc1[nH]c2c(C(=O)NCC3(O)CCCNCC3)cccc2c1C` (stereo not given) | no hit | no hit | no hit |
| 16 | `Cc1ccc2c(CNCCc3ccc(Cl)cc3)c(C(=O)O)[nH]c2c1` | no hit | - | no hit |
| 17 | `CN(C)c1ccc(C2CC(=O)C=C(NC3Cc4ccccc4C3)C2)cc1` (stereo not given) | no hit | no hit | no hit |
| 18 | `O=C(N[C@@H]1CCN(Cc2noc(C3CCCC3)n2)C[C@H]1O)c1ccccn1` | no hit | no hit | no hit |
| 19 | `CO[C@H]1[C@H](NC(=O)Cn2nc(C)c(C)c2C)c2ccccc2C12CCNCC2` | no hit | no hit | no hit |
| 20 | `CN1C(=O)C(Cc2nc3ccccc3c(=O)n2CCCO)c2cc(Br)ccc21` (stereo not given) | no hit | - | no hit |
| 21 | `COc1cccc(CNCc2cccnc2)c1OCc1ccccc1F` | no hit | no hit | no hit |
| 22 | `Cc1c(C2CCCC2)nc(N)c(C#N)c1-c1cnc(NCC2CCCO2)nc1` (stereo not given) | no hit | no hit | no hit |
| 23 | `O=C(O)CCc1ccc(NCc2cccc(Oc3ccccc3)c2)cc1` | no hit | no hit | no hit |
| 24 | `O=C(OCCO)c1cc(Cl)c(C(=O)OCCO)cc1Cl` | no hit | no hit | no hit |
| 25 | `Cc1nc(C(C)SCc2ccc(Cl)cc2)n(CCO)n1` (stereo not given) | no hit | no hit | no hit |
| 26 | `CCOC(=O)c1ccc(Nc2cc(-c3ccccc3)nc(C)n2)cc1` | no hit | - | no hit |
| 27 | `Clc1ccc(CNC2CCN(c3ncnc4[nH]cnc34)CC2)s1` | no hit | no hit | no hit |
| 28 | `C=CCNc1c(O)cc2c(O)c1C[C@@H](C)C[C@H](OC)[C@@H](O)[C@@H](C)/C=C(/C)[C@H](OC(N)=O)[C@@H](OC)/C=C\C=C(\C)C(=O)N2` | no hit | no hit | no hit |
| 29 | `C[C@]1(O)CCN(c2nc(CO)cs2)C[C@@H]1O` | no hit | no hit | no hit |
| 30 | `Cc1nc2c(c(Nc3ccc(F)cc3)n1)CCC2` | no hit | - | no hit |
| 31 | `COCc1noc(CNCC(=O)NC2CCCCCCC2)n1` | no hit | no hit | no hit |
| 32 | `CC(C)(C)C1CCc2c(sc(NC(=O)c3ccc(Cl)cc3)c2C(=O)NCCO)C1` (stereo not given) | no hit | no hit | no hit |
| 33 | `NCCn1cc(C(=O)NCCSC2CCCCC2)nn1` | no hit | no hit | no hit |
| 34 | `COc1ccc(-c2cnc3c(-c4ccc(Cl)cc4)c(C)nn3c2N)cc1OC` | no hit | no hit | no hit |
| 35 | `CCOC(=O)c1cnc(Nc2nc(-c3ccccc3)c3ccccc3n2)nc1C` | no hit | no hit | no hit |
| 36 | `Cc1cc(Nc2ccc(C(=O)O)cc2)c2cc(F)ccc2n1` | no hit | no hit | no hit |
| 37 | `Cc1c(Cl)ccc2c(C(=O)O)cc(-c3ccccc3)nc12` | no hit | no hit | no hit |
| 38 | `CC(C)(C)C1CCc2c(sc(NC(=O)c3ccccc3F)c2C(=O)NCCO)C1` (stereo not given) | no hit | no hit | no hit |
| 39 | `CN(Cc1nccs1)C(=O)c1ccc(S(=O)(=O)N[C@@H]2CCNC2)cc1` | no hit | no hit | no hit |
| 40 | `COc1ccc(CCNCc2ccc(-c3ccc(C(=O)O)cc3)o2)cc1OC` | no hit | no hit | no hit |
| 41 | `Cc1noc(N)c1C(=O)Nc1ccc(C(F)(F)F)cc1` | no hit | no hit | no hit |
| 42 | `CCOC(=O)Cc1cc(=O)[nH]n(-c2ccccc2)c1=O` | no hit | no hit | no hit |
| 43 | `N#Cc1cccnc1N1CCN(C2Cc3ccccc3C2)CC(O)C1` (stereo not given) | no hit | no hit | no hit |
| 44 | `CCSc1nnc2nc(O)cc(N)n12` | no hit | no hit | no hit |
| 45 | `Cc1nc(N2CCN(CCO)CC2)nc2c1C(=O)CC(C)C2` (stereo not given) | no hit | no hit | no hit |
| 46 | `COc1ccc(Nc2nnc(-c3ccc(C)c(S(N)(=O)=O)c3)c3ccccc23)cc1` | no hit | no hit | no hit |
| 47 | `Cn1ccc2cc3c(cc21)CCN3C(=O)Nc1cccnc1` | hit | no hit | no hit |
| 48 | `CCOc1ccccc1Nc1nc2ccccc2n2cnnc12` | no hit | no hit | no hit |
| 49 | `Cc1ccc(NC2(C(=O)NCc3c(C)n[nH]c3C)CCCC2)cc1` | no hit | no hit | no hit |
| 50 | `CN(Cc1cccc2ncccc12)C(=O)CCc1cc2n(n1)CCNC2` | no hit | no hit | no hit |
| 51 | `CCC(CO)n1cc2c(c1-c1ccc(Cl)cc1)c(=O)n(C)c(=O)n2C` (stereo not given) | no hit | no hit | no hit |
| 52 | `Cc1cccc(CN2c3ccccc3C3=C(C(c4ccccc4F)C(C#N)=C(N)O3)S2(=O)=O)c1` (stereo not given) | no hit | - | no hit |
| 53 | `CCCc1nc(-c2cc3cc(C)ccc3nc2NCc2ccccc2OC)no1` | no hit | - | no hit |
| 54 | `Nc1cc(=O)[nH]c(SCC(=O)Nc2cccc(Cl)c2Cl)n1` | no hit | no hit | no hit |
| 55 | `O=c1c(-c2ccc(O)cc2)coc2cc(O)ccc12` | no hit | no hit | no hit |
| 56 | `Cc1nc2ccc(N)nc2nc1C` | no hit | no hit | no hit |
| 57 | `Cc1ccc2nc(CN3C[C@@H]4CCCN[C@@H]4C3)cc(O)c2c1` | no hit | no hit | no hit |
| 58 | `CC(C)(C)c1[nH]nc2c1C(c1ccccc1C(F)(F)F)C(C#N)=C(N)O2` (stereo not given) | no hit | no hit | no hit |
| 59 | `C(=Cc1ccccn1)c1ccccn1` | no hit | no hit | no hit |
| 60 | `CC(C)CN(Cc1ccco1)C(=O)c1cn(CC2CCCNC2)nn1` (stereo not given) | no hit | no hit | no hit |
| 61 | `Cc1nc(CN2CCC3(CCC(=O)N([C@H]4CC[C@H](O)CC4)C3)CC2)cs1` | no hit | no hit | no hit |
| 62 | `O=C(C(=O)N1CC[C@H]2NCCC[C@]2(C(=O)O)C1)c1ccccc1` | no hit | no hit | no hit |
| 63 | `NC1CCCN(C(=O)c2cnn(Cc3ccccc3)c2)CC1` (stereo not given) | no hit | no hit | no hit |
| 64 | `COc1ccc(Cc2nc(CCO)n(CC(F)(F)F)n2)cc1OC` | no hit | no hit | no hit |
| 65 | `CC(C)C[C@@H](N)C(=O)N1CC(Oc2ccccc2F)C1` | no hit | no hit | no hit |
| 66 | `Nc1nc2c(ncn2COCCO)c(=O)[nH]1` | no hit | no hit | no hit |

For reference, 5 entries once more:

- CC(=O)n1cc(C2CC(=O)OC3=C2CC(=O)C(C)(C)C3)c2ccccc21 (stereo not given) : T1: no hit; T2: no hit; T3: no hit
- CCCc1nc(-c2cc3cc(C)ccc3nc2NCc2ccccc2OC)no1 : T1: no hit; T3: no hit
- CO[C@H]1[C@H](NC(=O)Cn2nc(C)c(C)c2C)c2ccccc2C12CCNCC2 : T1: no hit; T2: no hit; T3: no hit
- Cn1c(=O)c2c(nc(NCc3ccc4c(c3)OCO4)n2C)n(C)c1=O : T1: no hit; T2: no hit; T3: no hit
- Cc1nc2ccc(N)nc2nc1C : T1: no hit; T2: no hit; T3: no hit